PubChem BioAssay AID504775 (Broad Institute, 2011)
About 310 (0.097%) of roughly 320,000 compounds were called active. Inconclusive means that the source gave no clear call. Such entries were picked first, then a sample of the others.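 How the source made its calls: active means mean replicate activation of at least 60% and every replicate at or above 60%; inconclusive means mean or all-replicate condition met, but not both; inactive means mean below 60% and not all replicates reaching 60%.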 *1 amine or outer side, *2 acyl side, *3 side chain or, on linkers, in order; H or OH if unused. Where a SMILES comes first, the peptide text is derived from it. [ ]: non-standard residue; d: D form. ξ: configuration not given here. X1 = CCCCCCC[C@H](O)C[C@@H](N[*:1])[C@@H](O)C(=O)[*:2]; X3 = COc1ccc(CCCC(N[*:1])C(=O)[*:2])cc1; ξThr(3R) = C[C@@H](O)C(N)C(=O)O; NMeN = CN[C@@H](CC(N)=O)C(=O)O; X2 = C/C=C(/N[*:1])C(=O)[*:2]; Dhb = C/C=C(\N)C(=O)O; Sar = CNCC(=O)O

experiment: enhancers of HDL lipid transfer via mSR-BI – ldlA[mSR-BI] CHO cells, DiI fluorescence, primary screen (AID 504775); details: DiI-HDL uptake fluorescence, 3 h, at 12.5 µM, stronger effect = higher value, 100 = double the neutral-control signal;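 further: 0% = median plate neutral-control signal and 100% = twice that signal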
How it was run: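 system = CHO ldlA[mSR-BI] cells, LDL receptor-null, SR-BI overexpressing | medium = Ham's F12 with 0.5% BSA, HEPES 25 mM, pH 7.4 | probe or stimulus = DiI-HDL 10 µg/mL | compound dosing = single-point compound dose | incubation = compound exposure 3 h, 37 °C | technique = DiI fluorescence, bottom read | read-out = cell-associated DiI fluorescence as measure of HDL uptake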

Structure (SMILES) | activation
CCn1c(C(=O)NCc2cccnc2)cc2sc(Cl)cc21 | active: 418%
COc1cccc(-c2nc3ccccc3c(=O)o2)c1 | inconclusive: 62.3%
Cc1ccc2c(c1)NC(=O)[C@@]1(C)[C@@H](c3ccccc3)[C@H]3COc4ccc(Cl)cc4[C@@H]3N1C2=O | active: 138%
CCCc1cc(C(=O)OC)c2ccccc2n1 | active: 76.7%
Cc1ccc(CN2CCSCC2)c(C)c1 | inactive: 24.3%
COc1ccc(C2Nc3cc(OC)ccc3-n3cccc32)cc1 (centres undefined) | inactive: -67.9%
Brc1cccc(C=Nc2cccc3ncccc23)c1 | inconclusive: 117%
Cc1nn2c(NC(C)C)c3c(nc2c1-c1ccccc1)CCC3 | active: 104%
Cc1ccc(OCC(=O)N2CC(C)OC(C)C2)c([N+](=O)[O-])n1 (centres undefined) | inconclusive: 61.5%
Cc1ccc(-c2csc(N(C)C(=O)c3c(C)nn(-c4ccccc4)c3Cl)n2)cc1 | inconclusive: 163%
COc1ccc(C(=O)Nc2nnc(S(=O)(=O)N(C)Cc3ccc(F)cc3)s2)cc1OC | inactive: -0.582%
Cc1cccc(OCC(=O)Nc2nccs2)c1C | inconclusive: 95.9%
COc1ccc(S(=O)(=O)Nc2c(C)n(C)n(-c3ccccc3)c2=O)cc1Br | inconclusive: 70.1%
O=C(CN1C(=O)NC2(CCCCCC2)C1=O)N1CCN(c2ccc(F)cc2)CC1 | inactive: -32.2%
Cc1cc(C)n(-c2ccc(C(=O)NCc3ccc4c(c3)OCO4)cc2)n1 | inconclusive: 94.4%
Cc1cc(C(=O)CN2C(=O)NC(CC(C)C)C2=O)c(C)n1-c1ccccc1F (centres undefined) | inconclusive: 206%
CN1/C(=C\C(=O)CN2C(=O)NC3(CCCCCC3)C2=O)C(C)(C)c2ccccc21 | inconclusive: 60.3%
O=C(NCc1cccnc1)c1c[nH]c2cc3c(cc2c1=O)OCCO3 | inconclusive: 143%
Cc1ccc(-c2c[n+](CC(=O)Nc3ccc(C)cc3C)c3n2CCC3)cc1 | inconclusive: 66.4%
COc1cc(/C=C/C(=O)O)cc(S(=O)(=O)Nc2cccc(SC)c2)c1OC | inconclusive: 60%
CCC(C)[C@@H](CN(N=O)[C@@H](Cc1ccccc1)CN(C)N=O)N(CCc1ccccc1)N=O (some centres undefined) | active: 67.6%
COc1cccc(CC(=O)Nc2ccccc2C(=O)N2CCOCC2)c1 | active: 71.3%
Cc1ccc(OCC(=O)Nc2ccc(C(N)=O)cc2)cc1 | inconclusive: 75.9%

Shown in markdown: part of the list above.

| Structure (SMILES) | activation |
| --- | --- |
| CCn1c(C(=O)NCc2cccnc2)cc2sc(Cl)cc21 | active: 418% |
| Brc1cccc(C=Nc2cccc3ncccc23)c1 | inconclusive: 117% |

Additional structures follow:

Structure (SMILES) | activation
CS(=O)(=O)N(CC(=O)N1CCCCC1)Cc1ccccc1 | inconclusive: 223%
Cn1c(SCc2cccc(C(F)(F)F)c2)nnc1-c1ccco1 | active: 164%
C/C=C1\NC(=O)[C@H](CC(N)=O)N(C)C(=O)C([C@@H](C)O)NC(=O)C(CCCc2ccc(OC)cc2)NC(=O)[C@H](C(C)C)NC(=O)/C(=C\C)NC(=O)[C@H](O)[C@@H](C[C@@H](O)CCCCCCC)NC(=O)[C@H](C)NC(=O)CN(C)C(=O)[C@H](CCC(N)=O)NC1=O (stereo partly drawn) (cyclo(A[X1][X2]V[X3][ξThr(3R)][NMeN][Dhb]Q[Sar])) | inconclusive: 63.1%
O=C(O)c1cccc(N/N=C/c2cn(-c3ccccc3)nc2-c2cccs2)c1 | inactive: -6.71%
Cc1[nH]c(=O)[nH]c(=O)c1S(=O)(=O)Nc1cccc([N+](=O)[O-])c1C | inconclusive: 172%
O=c1[nH]c2ccc(S(=O)(=O)N3CCN(c4ccccc4F)CC3)cc2s1 | inconclusive: 180%
CC1(C)C2CCC13CS(=O)(=O)N[C@@H]3C2 (some centres undefined) | active: 118%
COc1ccc(OC)c(S(=O)(=O)N2CCN(C(=O)CCc3ccccc3)CC2)c1 | inconclusive: 63.1%
O=C(CC1C(=O)NCCN1C(=O)Nc1ccccc1)Nc1cc(Cl)cc(Cl)c1 (centres undefined) | inconclusive: 261%
O=C(NC1CCCC1)c1cccc2c1C(=O)c1ccc(/C=C/c3ccccc3)cc1S2(=O)=O | inactive: -20.5%
Nc1ccc(C(=O)Nc2ccccc2C(=O)O)cc1 | active: 84.8%
O=C1CCC(=O)N1c1ccccc1 | inconclusive: 110%
COc1cc2c(cc1NC(=O)CSc1cccc[n+]1[O-])oc1ccccc12 | inactive: -54.6%
CCCCCC(=O)NC(=S)Nc1ccc(Br)cc1C | active: 69.6%
COc1cccc(NC(=O)CN(C)C(=O)c2cc(S(=O)(=O)N3CCCCCC3)ccc2OC)c1 | inactive: -13.7%
Cc1ccc2c(c1)N(C(=O)CCC(=O)NCCCN1CCOCC1)CCO2 | inactive: 57.1%
Cc1cc(NC(=O)CSc2ccc3nnc(-c4ccccn4)n3n2)no1 | inconclusive: 289%
Cc1ccc(S(=O)(=O)N(CC(=O)N2CCCCCC2)c2ccccc2)cc1 | inactive: 16.2%
CCCCn1c(=O)c2c(nc3n2CCCN3Cc2ccccc2)n(C)c1=O | inconclusive: 73.8%
OCCCCc1nccc2c1[nH]c1ccccc12 | active: 538%
CSc1cccc(CN2CCC(CO)(Cc3cccc(C(F)(F)F)c3)CC2)c1 | inconclusive: 147%
CCOC(=O)c1ccc(S(=O)(=O)N2CCC(C(=O)O)CC2)cc1 | active: 69.5%
Cc1cc(NC(=O)c2cc(-c3ccc(OC(C)C)cc3)nc3ccccc23)no1 | inconclusive: 154%

Part of the list above, in markdown.

| Structure (SMILES) | activation |
| --- | --- |
| Cc1ccc(OCC(=O)N2CC(C)OC(C)C2)c([N+](=O)[O-])n1 (centres undefined) | inconclusive: 61.5% |
| Cc1ccc(-c2csc(N(C)C(=O)c3c(C)nn(-c4ccccc4)c3Cl)n2)cc1 | inconclusive: 163% |

Going on with the list.

Structure (SMILES) | activation
CC(C)(C)C(=O)NC(=S)Nc1ccc(Cl)c(C(=O)O)c1 | inconclusive: 145%
COc1ccc(NC(=O)C(Sc2nnc3ccccn23)c2ccccc2)cc1Cl (centres undefined) | active: 82.4%
Cc1ccc(-c2nnc(Oc3ccc(NC(=O)c4ccccc4)cc3)c3ccccc23)cc1 | active: 169%
O=C(NCC(=O)N1CCN(C(=O)c2ccco2)CC1)c1cccc(Cl)c1 | inactive: 2.28%
CCOC(=O)C(=O)NNc1ccccc1C | inconclusive: 63.8%
NC(=O)CSc1ccc(Br)cc1 | inconclusive: 71.9%
COc1ccc(Cc2nnc(SCC(=O)c3ccc4c(c3)OCO4)o2)cc1 | inconclusive: 126%
Cc1ccc(NC(=O)COc2ccccc2C=O)cc1Cl | inactive: -35.6%
COc1ccc(-n2c(SCC(=O)N3CCCCC3C)nnc2-c2cccnc2)cc1 (centres undefined) | active: 117%
CC(C)(C)c1ccc(C(=O)NCCC(=O)N2CCN(c3ncccn3)CC2)cc1 | inconclusive: 240%
O=C(Nc1ccc(F)cc1)OCCOc1ccc(Br)cc1 | inactive: 13.5%
Cc1ccccc1C(=O)NC1CCN(C(=O)NCc2ccccc2)CC1 | inconclusive: 200%
CCOc1ccc(S(=O)(=O)N2CCN(CN3C(=O)CC4(CCCC4)C3=O)CC2)cc1 | inconclusive: 74.7%
COc1ccccc1C(=O)n1nc(-c2ccccc2)nc1NCc1ccco1 | inactive: -24.5%
COc1ccccc1CNC(=O)COc1ccc(C)cc1 | active: 718%
O=C(N/N=C/c1cn(-c2cccs2)nc1-c1ccccc1)c1ccccc1Cl | inactive: -25.1%
COc1ccc([C@@H]2[C@@H]3C(=O)N(C(C)(C)C)C(=O)[C@@H]3[C@]3(C)C(=O)N(c4cccc(C)c4)C(=O)N23)cc1 | inactive: 14.4%
CN(C)CCNC=C(C(=O)Nc1ccc(Cl)cc1Cl)C(=O)Nc1ccc(Cl)cc1Cl | active: 82.5%
O=C(c1ccc2c(=O)n3c(nc2c1)CCCCC3)N1CCN(C(c2ccccc2)c2ccccc2)CC1 | inconclusive: 125%
CC1(C)CC(=O)C(c2ccccc2)(c2ccccc2)C(=O)C1 | inconclusive: 70.1%
CCOC(=O)Cn1c(=O)oc2cc(S(=O)(=O)NC(C)(C)CC)ccc21 | inconclusive: 119%
CCOC(=O)C1=C(C)NC(=O)C(C#N)C1c1ccco1 (centres undefined) | active: 60.9%
COc1ccc(OCCC(=O)OCC(=O)NC(=O)NC(C)(C)C)cc1 | inactive: -13.4%

Structure (SMILES) | activation
COc1ccc(S(=O)(=O)Cc2ccc(C(=O)N3CCC(C(N)=O)CC3)o2)cc1 | inconclusive: 132%
CCc1ccc(NC(=O)CSc2nc3n[nH]c(C)c3c(=N)n2-c2cccc(OC)c2)cc1 | active: 123%
Cc1onc(-c2ccccc2)c1C(=O)Nc1ccc(OC(C)C)cc1 | inconclusive: 110%
CC1(C)CC(NC(=O)c2ccc(Cl)c(S(=O)(=O)N(Cc3ccccc3)c3ccccc3)c2)CC(C)(C)N1 | active: 96.6%
O=C(CSc1nnc(Cn2cnc3ccccc32)o1)Nc1cccc2ccccc12 | inconclusive: 333%
O=S(=O)(Cc1ccc(Cl)cc1Cl)c1ccc(Cl)cc1 | inactive: -15.8%
COc1ccc(-c2nc(-c3cccnc3)no2)cc1 | inactive: 5.4%
O=C(O)CCSc1nnc(-c2ccncc2)n1-c1ccccc1 | inconclusive: 144%
O=C(COC(=O)c1ccc(Br)o1)Nc1ccc(Br)cc1 | inconclusive: 93%
O=C(O)c1ccccc1Cc1ccc2c(c1)CCCC2 | inconclusive: 228%
CCN(CC)CCNC(Cc1ccccc1)c1cccc(OC)c1 (centres undefined) | inactive: -4.97%
NC(=O)CC(NC(=O)c1ccccc1)c1ccc(N2CCCCCCC2)c([N+](=O)[O-])c1 (centres undefined) | inactive: 4.3%
NC(=O)c1ccccc1NC(=O)Cc1cccs1 | inconclusive: 208%
Cc1ccccc1/C=C1\C(=O)Nc2ccc(F)cc21 | inactive: -8.36%
Cc1ccccc1CN1CCN(C(=O)c2ccc(F)cc2)CC1 | inconclusive: 87.1%
O=C(Sc1n[nH]c(=O)[nH]c1=O)c1ccccc1 | inconclusive: 154%
CCN(CC(=O)NC1CCCC1)S(=O)(=O)c1ccc(F)cc1 | inactive: 10.2%
CC(=O)N1CCN(C(=O)c2ccc(-n3c(C)ccc3C)cc2)CC1 | inconclusive: 60.6%
O=C(O)c1cc([N+](=O)[O-])cc2ccccc12 | active: 89.8%
CCOC(=O)c1ccc(NC(=O)CCc2nc(-c3ccccc3)no2)cc1 | inconclusive: 131%
